Results as given in PMC11792593.
These are yes or no findings as the source states them, for the method shown. Binding seen in cells or lysates may run through a third protein. Some results given as binding are weak or reduced against the parent protein; the word gives no strength.

By UniProt entry, the sequences of proteins in these tests, tags left out.
UniProt Q04206: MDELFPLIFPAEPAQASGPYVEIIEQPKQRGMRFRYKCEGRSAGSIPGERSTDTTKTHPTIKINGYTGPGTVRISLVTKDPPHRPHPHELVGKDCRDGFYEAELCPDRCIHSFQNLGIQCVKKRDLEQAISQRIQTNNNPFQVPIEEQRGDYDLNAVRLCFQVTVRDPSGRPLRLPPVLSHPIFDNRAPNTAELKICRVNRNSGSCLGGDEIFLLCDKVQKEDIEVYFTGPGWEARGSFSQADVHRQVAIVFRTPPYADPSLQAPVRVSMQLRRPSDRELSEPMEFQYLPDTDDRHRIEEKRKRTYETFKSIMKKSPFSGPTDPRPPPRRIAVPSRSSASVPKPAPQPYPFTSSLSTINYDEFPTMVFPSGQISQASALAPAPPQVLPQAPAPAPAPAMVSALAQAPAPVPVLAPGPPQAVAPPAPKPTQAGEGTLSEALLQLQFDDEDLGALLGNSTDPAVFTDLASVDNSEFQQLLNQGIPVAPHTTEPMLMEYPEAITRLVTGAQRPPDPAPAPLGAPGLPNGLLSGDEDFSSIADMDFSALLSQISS

T1: EDF1 (endogenous, NC/control neuroblastoma cells) (human (endogenous in NB cell lines)) (UniProt O60869)
T1 sequence: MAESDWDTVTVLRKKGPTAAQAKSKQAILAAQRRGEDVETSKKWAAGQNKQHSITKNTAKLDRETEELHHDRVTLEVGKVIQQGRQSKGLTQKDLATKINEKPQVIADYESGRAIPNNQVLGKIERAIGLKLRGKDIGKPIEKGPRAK


How the values were obtained:
[1] = target: T1, EDF1 (endogenous, NC/control neuroblastoma cells) (human (endogenous in NB cell lines)); test: co-IP; NB cell lysates immunoprecipitated by anti-EDF1 antibody, blotted for NF-κB p65/RelA; IgG as negative control
[2] = target: NF-κB p65/RelA (human (endogenous in NB cell lines)) (UniProt Q04206); test: co-IP; NB cell lysates (NC and EDF1-overexpressed) immunoprecipitated by anti-NF-κB p65/RelA antibody, blotted for EDF1; IgG as negative control

binding [1]	binding [2]	Molecule
binds	–	NF-κB p65/RelA (from UniProt Q04206 1-551)
–	binds	EDF1 (endogenous, NC/control neuroblastoma cells) (protein, UniProt O60869 1-148) MAESDWDTVTVLRKKGPTAAQAKSKQAILAAQRRGEDVETSKKWAAGQNKQHSITKNTAKLDRETEELHHDRVTLEVGKVIQQGRQSKGLTQKDLATKINEKPQVIADYESGRAIPNNQVLGKIERAIGLKLRGKDIGKPIEKGPRAK
–	binds	EDF1, full-length, overexpressed in NB cells (pcDNA3.1) (protein, UniProt O60869 1-148) MAESDWDTVTVLRKKGPTAAQAKSKQAILAAQRRGEDVETSKKWAAGQNKQHSITKNTAKLDRETEELHHDRVTLEVGKVIQQGRQSKGLTQKDLATKINEKPQVIADYESGRAIPNNQVLGKIERAIGLKLRGKDIGKPIEKGPRAK
